# Target: 5-hydroxytryptamine receptor 2B (Homo sapiens, UniProt P41595)
# Sequences of proteins named here, by UniProt entry; tags and fusion partners are left off.
# UniProt P41595, whole entry: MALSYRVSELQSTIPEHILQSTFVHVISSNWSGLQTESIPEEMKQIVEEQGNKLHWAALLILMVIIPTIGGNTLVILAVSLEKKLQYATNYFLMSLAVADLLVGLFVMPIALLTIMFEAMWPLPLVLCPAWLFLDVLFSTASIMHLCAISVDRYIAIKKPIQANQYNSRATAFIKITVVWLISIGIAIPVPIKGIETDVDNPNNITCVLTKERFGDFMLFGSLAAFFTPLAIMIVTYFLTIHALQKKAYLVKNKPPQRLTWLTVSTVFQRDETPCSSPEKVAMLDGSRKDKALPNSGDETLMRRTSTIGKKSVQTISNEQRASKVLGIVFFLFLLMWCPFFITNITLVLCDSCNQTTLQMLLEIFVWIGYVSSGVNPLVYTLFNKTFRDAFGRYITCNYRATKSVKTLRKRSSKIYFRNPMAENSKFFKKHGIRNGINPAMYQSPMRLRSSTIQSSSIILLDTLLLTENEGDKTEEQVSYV
compound,measurement,value
CC[C@@H](CO)NC(=O)[C@@H]1C=C2c3cccc4c3c(cn4C)C[C@H]2N(C)C1,Ki,1.59 nM

# Reference: BindingDB's records for PubMed 8632342 (Eli Lilly, 1996)
